Test results published in the odorant receptor screen of Mainland et al. (2015).
Where “and” joins values, the source holds several entries; their conditions need not be identical. Identical values can stand only once. Some of the results follow. Each value is one well over the wells without odorant, computed here; the data are noisy.

Assays:
Test in all cases: odorant receptor activation (CRE luciferase / Renilla) (fold of no-odor wells); higher = more activation
Conditions in all cases: 100 µM
OR51A2 clone 1577 = tested on: OR51A2 clone 1577
[1] = tested on: OR51A4 G45C/L227P/R267G clone 1166
OR51B2 clone 1551 = tested on: OR51B2 clone 1551
[2] = tested on: OR51B4 V36I/M147T clone 1552
OR51B5 clone 1553 = tested on: OR51B5 clone 1553
OR51B6 clone 1554 = tested on: OR51B6 clone 1554
OR51D1 clone 1206 = tested on: OR51D1 clone 1206
OR51E1 S11N clone 1532 = tested on: OR51E1 S11N clone 1532
OR51E1 clone 1129 = tested on: OR51E1 clone 1129
OR51E2 clone 1205 = tested on: OR51E2 clone 1205
OR51F2 clone 1330 = tested on: OR51F2 clone 1330
OR51G1 clone 1165 = tested on: OR51G1 clone 1165
OR51G2 clone 1199 = tested on: OR51G2 clone 1199
OR51H1 clone 1187 = tested on: OR51H1 clone 1187
OR51I1 clone 1555 = tested on: OR51I1 clone 1555
OR51I2 clone 1133 = tested on: OR51I2 clone 1133
OR51J1 R75H clone 1698 = tested on: OR51J1 R75H clone 1698
OR51L1 I281M clone 1535 = tested on: OR51L1 I281M clone 1535
[3] = tested on: OR51L1 T196I/A207V clone 1533
OR51L1 clone 1183 = tested on: OR51L1 clone 1183

SMILES	odorant receptor activation (OR51A2 clone 1577)	odorant receptor activation [1]	odorant receptor activation (OR51B2 clone 1551)	odorant receptor activation [2]	odorant receptor activation (OR51B5 clone 1553)	odorant receptor activation (OR51B6 clone 1554)	odorant receptor activation (OR51D1 clone 1206)	odorant receptor activation (OR51E1 S11N clone 1532)	odorant receptor activation (OR51E1 clone 1129)	odorant receptor activation (OR51E2 clone 1205)	odorant receptor activation (OR51F2 clone 1330)	odorant receptor activation (OR51G1 clone 1165)	odorant receptor activation (OR51G2 clone 1199)	odorant receptor activation (OR51H1 clone 1187)	odorant receptor activation (OR51I1 clone 1555)	odorant receptor activation (OR51I2 clone 1133)	odorant receptor activation (OR51J1 R75H clone 1698)	odorant receptor activation (OR51L1 I281M clone 1535)	odorant receptor activation [3]	odorant receptor activation (OR51L1 clone 1183)
COc1ccccc1O [guaiacol]	0.713	0.987	0.646	0.992	0.764	0.649	0.75	0.824 and 1.35	1.08	1.02	0.398 and 0.888	0.934	1.13	0.922	0.87	0.699	0.843	0.762 and 1.03	1.04 and 1.06	0.699
CCCCCCCCCC=O [decyl aldehyde]	0.941	1.18	0.976	0.958	1.06	1.15	1.25	1.33	1.31	1.11	1.31	1.1	1.21	0.949	0.629	1.1	0.751	1.13	1.1	1.34
CC12CCC(CC1)C(C)(C)O2 [cineole]	0.618	1.24	1.12	1.64	0.699	1	0.986	1.04	0.984	1.17	0.971	0.923	0.895	0.811	0.903	0.955	0.921	0.949	1.09	0.78
CC12CCC(C1)C(C)(C)C2=O (stereo not given) [fenchone]	0.693	0.939	0.802	0.878	0.891	0.7	0.857	1.14	1.07	1.02	1.05	0.859	1.03	0.764	0.791	0.74	0.649	0.992	1.61	1.05
CCCCCCCCCCC=O [undecanal]	1	0.882	0.994	1.02	1	1.71	1.22	1.02	1.31	0.9	0.748	1.07	0.968	0.831	5.91	0.877	1.05	0.896	0.887	1.2
COC(=O)c1ccccc1O [methyl salicylate]	0.67	0.891	0.771	0.819	0.839	0.923	0.705	0.973	1.1	0.96	0.826	0.986	1.02	0.743	1.06	0.834	0.807	1.01	0.89	1.04
CCCCCCCCOC(C)=O [octyl acetate]	0.718	0.953	0.981	0.809	0.964	0.64	0.888	0.983	1.32	1.17	1.18	0.906	1.18	0.922	1.16	1.07	0.644	1.01	0.788	0.994
CC1=CCC(C(C)(C)O)CC1 (stereo not given) [terpineol]	0.822	1.24	0.814	1.06	1.01	2.47	1.33	0.985	1.24	0.906	0.782	1.11	1.02	1.07	6.05	1.01	1.03	0.972	0.888	1.18
CC/C=C\CCO [cis-3-hexen-1-ol]	1.04	1.09	1.15	1.43	1.04	1.17	1.2	0.826	1.1	1.26	0.941	0.998	0.866	1.05	1	1.19	1.02	0.941	0.903	0.959
COc1cc(C)ccc1O [2-methoxy-4-methylphenol]	0.712	1	0.859	0.735	0.66	0.854	1.03	0.76	1.26	0.885	0.81	1.71	1.15	0.87	0.882	1.36	0.704	0.926	0.849	1.19
CC(=O)C(C)=O [diacetyl]	0.921	0.962	0.894	0.918	0.821	1.25	1.11	1.15	1.03	0.986	1.24	1.06	1.3	0.881	0.966	0.823	0.753	1.3	1.61	1.23
CCCCO [1-butanol]	0.842	0.994	0.822	0.803	0.699	1.01	1.1	1.14	1.38	0.867	0.924	1.47	1.45	1	0.829	0.925	0.776	1.38	1.2	0.932
CC(=O)OCC=C(C)CCC=C(C)C [geranyl acetate]	0.984	0.772	1.1	1.54	1.12	1.04	0.663	0.845 and 1.38	1.41	1.04	0.513 and 1.26	0.868	1.03	0.806	1.22	1.06	1.12	0.765 and 1.48	1.34 and 1.31	0.835
